## Percent effect of library compounds

Protein sequences, listed by entry. Tags and fused reporters are not part of them. Residues count along the entry.
UniProt Q4DA54, 1-478: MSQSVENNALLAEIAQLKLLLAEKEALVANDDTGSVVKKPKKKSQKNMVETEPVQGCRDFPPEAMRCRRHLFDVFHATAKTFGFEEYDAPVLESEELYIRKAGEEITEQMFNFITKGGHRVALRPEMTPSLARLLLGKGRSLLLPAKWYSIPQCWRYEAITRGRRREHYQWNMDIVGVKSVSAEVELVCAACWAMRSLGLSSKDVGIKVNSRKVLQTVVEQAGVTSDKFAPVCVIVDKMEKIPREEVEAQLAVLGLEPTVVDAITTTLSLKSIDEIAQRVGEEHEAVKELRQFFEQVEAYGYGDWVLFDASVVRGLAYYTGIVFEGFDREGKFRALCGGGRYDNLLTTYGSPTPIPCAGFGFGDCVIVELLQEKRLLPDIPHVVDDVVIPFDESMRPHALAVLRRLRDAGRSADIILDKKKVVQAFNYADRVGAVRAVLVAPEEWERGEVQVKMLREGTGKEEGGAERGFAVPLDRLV
UniProt A4I591, 1-473: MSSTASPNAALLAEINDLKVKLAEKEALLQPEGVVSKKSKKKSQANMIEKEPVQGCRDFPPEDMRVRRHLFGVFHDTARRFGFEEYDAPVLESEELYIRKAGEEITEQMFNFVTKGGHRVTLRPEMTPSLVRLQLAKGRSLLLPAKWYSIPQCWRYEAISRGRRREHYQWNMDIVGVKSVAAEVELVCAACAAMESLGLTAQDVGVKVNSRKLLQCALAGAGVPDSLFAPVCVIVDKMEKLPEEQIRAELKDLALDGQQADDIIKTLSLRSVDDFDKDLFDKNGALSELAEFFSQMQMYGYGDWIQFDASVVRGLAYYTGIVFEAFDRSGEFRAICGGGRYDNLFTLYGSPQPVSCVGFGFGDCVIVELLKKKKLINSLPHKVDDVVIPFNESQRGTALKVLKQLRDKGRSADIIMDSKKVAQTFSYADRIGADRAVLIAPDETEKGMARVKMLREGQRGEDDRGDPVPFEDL
UniProt Q8IDJ8, 1-583: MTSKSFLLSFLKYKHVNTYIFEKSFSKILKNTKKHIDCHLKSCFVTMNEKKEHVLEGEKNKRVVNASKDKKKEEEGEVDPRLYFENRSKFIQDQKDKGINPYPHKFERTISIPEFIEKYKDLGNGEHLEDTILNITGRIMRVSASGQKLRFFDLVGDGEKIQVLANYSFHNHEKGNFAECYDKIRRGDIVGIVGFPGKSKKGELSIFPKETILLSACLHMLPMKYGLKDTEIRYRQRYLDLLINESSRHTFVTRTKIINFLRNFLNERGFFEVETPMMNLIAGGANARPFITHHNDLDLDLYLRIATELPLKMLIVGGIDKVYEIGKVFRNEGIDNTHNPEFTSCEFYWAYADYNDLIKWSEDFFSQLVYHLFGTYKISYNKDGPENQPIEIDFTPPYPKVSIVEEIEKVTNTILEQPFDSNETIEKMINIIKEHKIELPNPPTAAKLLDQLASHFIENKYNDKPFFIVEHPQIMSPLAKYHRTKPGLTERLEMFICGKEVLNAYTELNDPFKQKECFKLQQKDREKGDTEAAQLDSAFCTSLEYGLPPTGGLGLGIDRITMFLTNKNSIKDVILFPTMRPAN
UniProt P9WNZ1, whole entry: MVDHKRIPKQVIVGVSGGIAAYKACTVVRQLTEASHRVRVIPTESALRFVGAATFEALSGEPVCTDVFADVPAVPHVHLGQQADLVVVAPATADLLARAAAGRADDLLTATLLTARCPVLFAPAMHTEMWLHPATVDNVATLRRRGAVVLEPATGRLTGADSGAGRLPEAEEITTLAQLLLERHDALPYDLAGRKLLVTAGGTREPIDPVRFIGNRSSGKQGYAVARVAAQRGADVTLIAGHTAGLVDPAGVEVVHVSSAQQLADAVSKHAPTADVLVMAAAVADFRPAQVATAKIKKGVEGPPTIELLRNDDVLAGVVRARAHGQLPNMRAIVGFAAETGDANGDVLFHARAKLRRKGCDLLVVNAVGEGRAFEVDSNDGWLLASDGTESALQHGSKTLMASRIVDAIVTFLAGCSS

Source: ChEMBL document CHEMBL3988442, “University of Dundee, Small-Polar-MMV Screening Library” (2021).

A: 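Histidine-tRNA ligase, Trypanosoma cruzi CL Brener (UniProt Q4DA54). Enzyme assay of histidyl-tRNA synthetase; the read-out is not stated. Tested at 30 µM. Direction is inferred from retests: higher values go with stronger inhibition. Of about 69,000 compounds tested this way, about 31 (0.045%) reached 50% or more in at least one test.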
B: 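Enzyme assay of histidyl-tRNA synthetase; the read-out is not stated. Target: Histidine-tRNA ligase, Leishmania infantum (UniProt A4I591). Concentration: 30 µM. Direction is inferred from retests: higher values go with stronger inhibition. The assay is labelled LdHisRS but filed under L. infantum. Of about 69,000 compounds tested this way, about 410 (0.6%) reached 50% or more in at least one test.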
C: 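Assay of Toxoplasma gondii numbers, read through their beta-galactosidase reporter with a colour substrate. Concentration: 10 µM. The record gives no direction; the compounds picked for IC50 retests had high values, so higher reads as fewer parasites. About 67,000 compounds were tested under these conditions; 0.38% (about 260) showed 50% or more at least once.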
D: 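Lysine-tRNA ligase, Plasmodium falciparum 3D7 (UniProt Q8IDJ8). Enzyme assay of the cytosolic lysyl-tRNA synthetase in 384-well plates, read by luminescence. Compounds at 30 µM. Direction is inferred from only a few compounds that gave an IC50; most scored high, so higher reads as stronger inhibition. Of about 69,000 compounds tested this way, about 49 (0.071%) reached 50% or more in at least one test.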
E: 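Enzyme assay of CoaBC with a phosphate dye (Biomol Green) read at 650 nm. Target: Coenzyme A biosynthesis protein CoaBC, Mycobacterium tuberculosis (UniProt P9WNZ1). Tested at 30 µM. Higher reads as stronger inhibition, judged from the few compounds that gave an IC50. Most strong results did not repeat in a second test. About 67,000 compounds were tested under these conditions; 0.06% (about 40) showed 50% or more at least once.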

Each number is a percent effect as filed.
How 0% and 100% were set is not recorded. Most values in the screen are low, and negative values occur.
Compounds were drawn at random from those tested, without regard to their results.
A dash means the value is not listed here; it may have been measured.

structure | A | B | C | D | E
O=C(O)C(F)(F)F.O=C(O)C(F)(F)F.c1cc(C2CC2)n2cnc(C3CN(Cc4ccncc4)CCO3)c2c1 (stereo not given) | - | - | -4.585 | - | -
c1ccc(NC[C@@H]2CCC[C@@H]3CN(Cc4cc[nH]n4)C[C@@H]32)nc1 | 0 | 4 | - | 2.88 | 4.433
Cc1ccc(CN(CC(=O)NCC2CCOC2)c2ccc(F)cc2)o1 (stereo not given) | 2.717 | 5.333 | 4.083 | 3.676 | 0.8264
COc1ccsc1C(=O)Nc1cc(CN2CCOCC2)ccc1C | 10.97 | -11.11 | -8.005 | 2.06 | -0.9662
CCCN1CCC(NC(=O)c2csc(C)c2C)CC1 | 2.174 | 6.579 | 8.003 | 7.109 | -7.009
CC(C)(C)CN(CCC#N)Cn1cc(Cl)cn1 | 1.327 | 6.195 | 6.653 | 0.8521 | 13.08
OCc1cc2ccccc2nc1NCC1CC1 | 14.45 | 17.02 | -4.406 | 3.475 | 1.489
Cc1ccc(NC(=O)N2CCN(C(=O)CC3CCCC3)CC2)s1 | 1.053 | 19.18 | -15.22 | 4.395 | 11.16
Cc1nc(-c2ccc(CC(=O)N3CCN(C(=O)C4CC4)CC3)cc2)cs1 | -3.261 | 21.21 | -4.33 | 3.712 | -8.669
Cc1ccc(N2CCc3c(CN(C)Cc4ccco4)cncc3C2)nn1 | 4.762 | 8.333 | - | 2.595 | -9.988
Cc1cc(NC(=O)NCCC(=O)N2CCCc3ccccc32)no1 | 8.287 | 0 | 3.213 | 3.981 | 2.166
O=S(=O)(NCCCN1CCCC1)c1cc(F)cc(F)c1 | 11.31 | 20.43 | -4.151 | -2.572 | 9.135
CCN(CC)S(=O)(=O)CCNC(=O)N(C)C(C)c1ccccn1 (stereo not given) | 1.734 | -4 | 2.304 | 2.452 | 1.24
CC(c1ccc(S(C)(=O)=O)cc1)N(C)C(=O)c1ccccc1I (stereo not given) | 1.064 | 24.29 | -6.742 | 7.79 | -2.664
Cc1nc(NC(=O)C2(C)CN(C)CCO2)sc1C (stereo not given) | 4.981 | 5.755 | - | -1.495 | -0.9569
CCN(Cc1noc(C)n1)C(=O)C(c1ccc(C)cc1)N(C)C (stereo not given) | 4.255 | 16.42 | -2.07 | 4.722 | -10.04
CC(C)(C)CC1CCCN1Cc1nc(-c2ccco2)no1 (stereo not given) | -12.5 | 5.376 | -0.5461 | 0.9117 | 5.968
CC(C)c1cc(C(=O)N2C[C@H]3CC[C@@H]2CN(Cc2cscn2)C3)no1 | 11.04 | 17.74 | - | 7.568 | 1.814
CCNC(=O)NC(=O)CNC1(c2noc(C)n2)CCCCC1 | -2.174 | 22.86 | 0.3519 | 3.889 | 12.01
CCn1c(Cn2cncn2)nnc1C1CCN(Cc2ccncc2)CC1 | 2.542 | 18.87 | 2.073 | 2.679 | 2.643
CS(=O)(=O)CCNC(=O)c1ccc(-c2ccco2)[nH]c1=O | 4.942 | 0.8772 | -0.6947 | 0.5011 | -4.54
COCCN1CCN(c2cccc(C)n2)Cc2ccc(C)nc21 | 13.57 | 11.88 | - | 2.65 | 13.24
Cn1cc(N2CC3(CCN(CC4CC4)C3)CC2=O)cn1.O=C(O)C(F)(F)F (stereo not given) | - | - | 1.724 | - | -
Cc1ocnc1C(=O)N[C@H]1CN(CC2CCC2)C[C@@H]1C(C)C | 1.786 | 20.43 | 16.38 | 5.377 | -2.558
CCCS(=O)(=O)NCc1cccnc1OCc1ccccc1 | 8.929 | 24.73 | -5.68 | 0.3974 | 11.08
CCN1CCC(N2CCC(C(=O)N(C)C)CC2)CC1 | 0.5587 | 5.769 | - | 1.809 | 4.485
COc1ccc(CC(=O)NC2CCN(CC(F)F)CC2)cc1OC | 6.916 | 10.71 | -2.055 | -0.1406 | -0.4545
CN(CC(=O)N1CCCC1Cn1cccn1)c1cnccn1 (stereo not given) | 3.759 | -41.57 | - | 6.743 | 5.141
O=C(O)C(F)(F)F.c1cnc(N2CCCC3(CCN(CC4CCOC4)CC3)C2)nc1 (stereo not given) | - | - | 7.303 | - | -
COc1cc(CN2CCCCCC2c2cccs2)cc(OC)c1O (stereo not given) | 10.55 | 8.989 | 29.14 | 0.6164 | -0.6017
COc1ccccc1CN(Cc1cccs1)S(=O)(=O)N(C)C(C)C | -6.627 | -4.396 | -0.2072 | 2.579 | -4.512
O=C(CCNC(=O)c1ccoc1)Nc1cccc(F)c1 | 4.202 | 16.53 | 5.906 | 23.08 | 13.61
Cc1ccc2c(c1)CN(C(=O)c1ccccc1F)C(CN(C)C)CO2 (stereo not given) | 0.5405 | 11.11 | - | 7.487 | -4.167
Cc1cc(C)c(C(=O)N2CCOC(c3cccs3)C2)c(=O)[nH]1 (stereo not given) | 5.806 | 15.15 | -2.711 | 4.888 | 1.208
CCc1cc(N(C)Cc2c(C)nn(C)c2C)n2nccc2n1 | 2.02 | 16.39 | 7.115 | 7.821 | 4.859
CCc1nn(C)c(Cl)c1CN1CCC(c2cc(O)nc(C)n2)CC1 | 10.5 | 16.87 | -7.234 | 2.665 | 11.17
Cc1ccc(CN2CCOC3(CCCN(C(=O)c4ccco4)C3)C2)s1 (stereo not given) | 0 | 17.92 | - | 0.3283 | 0.4545
CCc1nc(N2CCCC(O)(CO)CC2)ncc1C (stereo not given) | 3.191 | 12.86 | -17.23 | -0.655 | -2.664
COCc1ccccc1CNC(=O)CNc1ccccc1C(C)=O | 5.752 | 16.81 | 5.712 | 1.395 | 3.972
CCc1cccc(OCCCN(C)C(=O)CN2CCNC2=O)c1 | 4.464 | 8.85 | 15.09 | 7.12 | 7.925
OCCN(CCO)Cc1ccc(Br)c2cccnc12 | 5.155 | 5.747 | 9.5 | -0.4802 | 0.6711
CNC(=O)CN1CCCC12CCN(Cc1c[nH]cn1)CC2 | 0 | 12.82 | - | 3.184 | 5.764
O=C1CCNc2ncc(-c3ccc(Cl)cc3)cc2CN1C1CC1 | 12.36 | 12.24 | -7.962 | 5.182 | 2.906

For reference, 5 entries once more:

structure	A	B	C	D	E
Cc1nc(-c2ccc(CC(=O)N3CCN(C(=O)C4CC4)CC3)cc2)cs1	-3.261	21.21	-4.33	3.712	-8.669
CCc1nn(C)c(Cl)c1CN1CCC(c2cc(O)nc(C)n2)CC1	10.5	16.87	-7.234	2.665	11.17
COCc1ccccc1CNC(=O)CNc1ccccc1C(C)=O	5.752	16.81	5.712	1.395	3.972
CCCS(=O)(=O)NCc1cccnc1OCc1ccccc1	8.929	24.73	-5.68	0.3974	11.08
CCc1cccc(OCCCN(C)C(=O)CN2CCNC2=O)c1	4.464	8.85	15.09	7.12	7.925